The record followed here is the supplement of paper PMC11659162.

The list shows a part of the results. Single values of this set are uncertain.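 The cells are a human neuroglioma line carrying a green fluorescent autophagy reporter.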

The test has as its system H4 GFP-LC3. Description: ACBP immunofluorescence intensity (scaled to control) (AU (scaled)); higher = more intracellular ACBP/DBI. To be noted: 5 µM; 24 h.
`Oc1ccc2c3c1O[C@H]1c4[nH]c5ccccc5c4C[C@@]4(O)[C@@H](C2)N(CC2CC2)CC[C@]314` registered an ACBP immunofluorescence intensity of 0.675. The value for `CC(C)C[C@H](NC(=O)[C@H](Cc1ccccc1)NC(=O)CNC(=O)[C@@H](CSC(C)(C)C)NC(=O)[C@@H](N)Cc1ccc(O)cc1)C(=O)N[C@H](C(=O)OC(C)(C)C)[C@@H](C)O` was 0.496. The value for `C1CCc2nnnn2CC1` was 0.878; that for `CNCCc1ccc(O)c(O)c1` was 0.858. The value for `C=CCN1C[C@H](C(=O)N(CCCN(C)C)C(=O)NCC)C[C@@H]2c3cccc4[nH]cc(c34)C[C@H]21` was 0.816; that for `CC(C)CC1C(=O)N2CCCC2C2(O)OC(NC(=O)C3C=C4c5cccc6[nH]cc(c56)CC4N(C)C3)(C(C)C)C(=O)N12` (centres undefined) was 0.689; that for `COc1ccc(CCN2CCC(Nc3nc4ccccc4n3Cc3ccc(F)cc3)CC2)cc1` was 0.837. `CN(C(=O)Cc1ccc(Cl)c(Cl)c1)[C@H](CN1CCCC1)c1ccccc1` registered an ACBP immunofluorescence intensity of 0.762.

Regarding `CCCN(CCC)C1CCc2cccc(O)c2C1` (centres undefined), the ACBP immunofluorescence intensity turned out to be 0.877.
